Source: patent US20140348880A1, “Ortho-Aminothiophenol Compounds and Uses Thereof” (Cape Breton University, priority 2013, published 2014)
Some of these results come from one statement about several compounds together.

How the values were obtained:
Experiment in all cases: In vitro disc diffusion assay, ZOI (Example 3)
Assay type in all cases: cell-based
Conditions in all cases: data not shown
[1] = system: Pseudomonas aeruginosa (#27853)
Procedure: (§1) Sterile assay discs (6 mm diameter) were obtained from VWR Whatman and antibiotic assay discs (6 mm diameter) containing getamicin (10 μg/disc) and the combination drug sulfamethoxazole 23.75 μg/disc and trimethoprim 1.25 μg/disc were obtained from Becton, Dickinson and Company (USA). Dimethyl sulfoxide (DMSO) for microbial experiments was BioReagent™ grade and was purchased from Sigma-Aldrich. The nutrient broth and Müller-Hinton agar was purchased from Becton, Dickinson and Company (USA). Bacillus cereus, Pseudomonas aeruginosa (#27853), Klebsiella pneumonia (#13883), Proteus vulgaris (#13315), Staphylococcus aureus (#25923) and Escherichia coli (#25922) strains were obtained from the American Type Culture Collection (ATCC). All materials in contact with antimicrobial matter was treated for 40 min at 121° C. and 20 psi in a biohazard autoclave bag prior to waste disposing or washing. McFarland turbity standards containing barium sulfate were obtained from bioMérieux.
(§2) The growth medium was prepared by addition of Müller-Hinton agar (38 g) to 1 L distilled water under vigorous stirring and boiled for 10 min until complete dissolution. After cooling to 25° C., the pH value of the medium was 7.3±0.1. The medium was sterilized in an autoclave at 121° C. for 15 min at 20 psi, cooled to 45-50° C. and dispended into sterile Petri dishes on a leveled, horizontal surface to give uniform depth. Stock solutions of the microorganisms were incubated at 37° C. for 24 h and the turbidity of the microbial colonies were adjusted visually with sterile saline (0.85% w/v NaCl) to 0.5 McFarland standards. Within 15 min after adjusting the turbidity of the suspensions, the Petri dishes were inoculated using sterile cotton buds. The prepared antibiotic assay discs were placed on the surface of the seeded Müller-Hinton agar using flame sterilized forceps.
(§3) Stock solutions of compounds and the Cu complexed compounds were made in DMSO and were micropipetted onto the discs for 25 to 200 μg compound/disc. The discs were dried at ambient temperature for 30-50 min before placement onto the seeded Petri dishes which were then incubated at 37° C. for 24 h. Averaged inhibition zone measurements (mm) have an accuracy of ±0.5 mm; adjacent overlapping ZOI were determined using radii measurements.

[2] = system: Escherichia coli (#25922)
Procedure: as §1, §2, §3

[3] = system: Klebsiella pneumonia (#13883)
Procedure: as §1, §2, §3

[4] = system: Proteus vulgaris (#13315)
Procedure: as §1, §2, §3

Nc1ccccc1SCc1ccc(CSc2ccccc2N)cc1 [Compound L1]
not active: Activity against Pseudomonas aeruginosa (in words) [1] | Activity against Escherichia coli (in words) [2] | Activity against Klebsiella pneumonia (in words) [3] | Activity against Proteus vulgaris (in words) [4]

2-(methylthio)-N-(2-thienylmethylene)-benzenamine copper (II) bromide [ECPP-129]
not active: Activity against Pseudomonas aeruginosa (in words) [1] | Activity against Escherichia coli (in words) [2] | Activity against Klebsiella pneumonia (in words) [3] | Activity against Proteus vulgaris (in words) [4]

C(=N\c1ccccc1SCc1ccccc1CSc1ccccc1/N=C/c1ccccn1)/c1ccccn1 [Compound L4]
not active: Activity against Pseudomonas aeruginosa (in words) [1] | Activity against Escherichia coli (in words) [2] | Activity against Klebsiella pneumonia (in words) [3] | Activity against Proteus vulgaris (in words) [4]

Nc1ccccc1SCc1ccccc1CSc1ccccc1N [Compound L2]
not active: Activity against Pseudomonas aeruginosa (in words) [1] | Activity against Escherichia coli (in words) [2] | Activity against Klebsiella pneumonia (in words) [3] | Activity against Proteus vulgaris (in words) [4]

C(=N\c1ccccc1SCc1ccccc1)/c1ccccn1 [Compound L3]
not active: Activity against Pseudomonas aeruginosa (in words) [1] | Activity against Escherichia coli (in words) [2] | Activity against Klebsiella pneumonia (in words) [3] | Activity against Proteus vulgaris (in words) [4]

2-(methylthio)-N-(2-pyridylmethylene)-benzenamine copper (II) bromide [ECPP-145]
not active: Activity against Pseudomonas aeruginosa (in words) [1] | Activity against Escherichia coli (in words) [2] | Activity against Klebsiella pneumonia (in words) [3] | Activity against Proteus vulgaris (in words) [4]
